Source: article PMC9681887
These are yes or no findings as the source states them, for the method shown. In cells and extracts the contact can be indirect. Some entries that bind do so weakly or less than the wild type.

Biological target: RIPK3 (mouse (endogenous in MEFs)), Q9QZL0
Assay: co-IP; necrosome from WT and SENP1-KD MEFs, immunoprecipitated with anti-RIPK3 antibodies (0.5% NP-40 lysis buffer, protein A/G agarose); immunoblot
Details: remark: other sources report otherwise

B1: RIPK1, Q60855 1-656 (protein)
chain: MQPDMSLDNIKMASSDLLEKTDLDSGGFGKVSLCYHRSHGFVILKKVYTGPNRAEYNEVLLEEGKMMHRLRHSRVVKLLGIIIEEGNYSLVMEYMEKGNLMHVLKTQIDVPLSLKGRIIVEAIEGMCYLHDKGVIHKDLKPENILVDRDFHIKIADLGVASFKTWSKLTKEKDNKQKEVSSTTKKNNGGTLYYMAPEHLNDINAKPTEKSDVYSFGIVLWAIFAKKEPYENVICTEQFVICIKSGNRPNVEEILEYCPREIISLMERCWQAIPEDRPTFLGIEEEFRPFYLSHFEEYVEEDVASLKKEYPDQSPVLQRMFSLQHDCVPLPPSRSNSEQPGSLHSSQGLQMGPVEESWFSSSPEYPQDENDRSVQAKLQEEASYHAFGIFAEKQTKPQPRQNEAYNREEERKRRVSHDPFAQQRARENIKSAGARGHSDPSTTSRGIAVQQLSWPATQTVWNNGLYNQHGFGTTGTGVWYPPNLSQMYSTYKTPVPETNIPGSTPTMPYFSGPVADDLIKYTIFNSSGIQIGNHNYMDVGLNSQPPNNTCKEESTSRHQAIFDNTTSLTDEHLNPIRENLGRQWKNCARKLGFTESQIDEIDHDYERDGLKEKVYQMLQKWLMREGTKGATVGKLAQALHQCCRIDLLNHLIRASQS
- binding: binds
